Further values from the same series stand in other lists.

Type in all cases: ADME, organism-based
Conditions in all cases: in vivo

Data set [1] has as its system Rattus norvegicus. In words: Distribution in brain of rat, 6 hr after intravenous administered, injected dose/gm.
Data set [2] deals with Rattus norvegicus. The data set is described as follows: Distribution in rat liver 8 hr after intravenous administration, injected dose/gm.
Data set [3] concerns Rattus norvegicus. In words: Distribution in rat spleen 1 hr after intravenous administration, injected dose/gm.
The test system of data set [4] is Rattus norvegicus. In words: Distribution in rat uterus 1 hr after intravenous administration, injected dose/gm.

As to `O=C(CCCN1CCC(O)(c2ccc(Br)cc2)CC1)c1ccc(F)cc1` [BROMPERIDOL], the Distribution turned out to be 1.58% in the data set with Rattus norvegicus [1], 4.33% in the data set with Rattus norvegicus [2], 2.6% with Rattus norvegicus [3] and 1.21% in the data set with Rattus norvegicus [4].

Source of the values: ChEMBL document CHEMBL1123045, “Synthesis of high specific activity [75Br]- and [77Br]bromperidol and tissue distribution studies in the rat” (J Med Chem, 1985).
